Test results taken from article PMC8514439.

By UniProt entry, the sequences of proteins in these tests, tags left out. Residues count along the entry.
UniProt Q86YC2: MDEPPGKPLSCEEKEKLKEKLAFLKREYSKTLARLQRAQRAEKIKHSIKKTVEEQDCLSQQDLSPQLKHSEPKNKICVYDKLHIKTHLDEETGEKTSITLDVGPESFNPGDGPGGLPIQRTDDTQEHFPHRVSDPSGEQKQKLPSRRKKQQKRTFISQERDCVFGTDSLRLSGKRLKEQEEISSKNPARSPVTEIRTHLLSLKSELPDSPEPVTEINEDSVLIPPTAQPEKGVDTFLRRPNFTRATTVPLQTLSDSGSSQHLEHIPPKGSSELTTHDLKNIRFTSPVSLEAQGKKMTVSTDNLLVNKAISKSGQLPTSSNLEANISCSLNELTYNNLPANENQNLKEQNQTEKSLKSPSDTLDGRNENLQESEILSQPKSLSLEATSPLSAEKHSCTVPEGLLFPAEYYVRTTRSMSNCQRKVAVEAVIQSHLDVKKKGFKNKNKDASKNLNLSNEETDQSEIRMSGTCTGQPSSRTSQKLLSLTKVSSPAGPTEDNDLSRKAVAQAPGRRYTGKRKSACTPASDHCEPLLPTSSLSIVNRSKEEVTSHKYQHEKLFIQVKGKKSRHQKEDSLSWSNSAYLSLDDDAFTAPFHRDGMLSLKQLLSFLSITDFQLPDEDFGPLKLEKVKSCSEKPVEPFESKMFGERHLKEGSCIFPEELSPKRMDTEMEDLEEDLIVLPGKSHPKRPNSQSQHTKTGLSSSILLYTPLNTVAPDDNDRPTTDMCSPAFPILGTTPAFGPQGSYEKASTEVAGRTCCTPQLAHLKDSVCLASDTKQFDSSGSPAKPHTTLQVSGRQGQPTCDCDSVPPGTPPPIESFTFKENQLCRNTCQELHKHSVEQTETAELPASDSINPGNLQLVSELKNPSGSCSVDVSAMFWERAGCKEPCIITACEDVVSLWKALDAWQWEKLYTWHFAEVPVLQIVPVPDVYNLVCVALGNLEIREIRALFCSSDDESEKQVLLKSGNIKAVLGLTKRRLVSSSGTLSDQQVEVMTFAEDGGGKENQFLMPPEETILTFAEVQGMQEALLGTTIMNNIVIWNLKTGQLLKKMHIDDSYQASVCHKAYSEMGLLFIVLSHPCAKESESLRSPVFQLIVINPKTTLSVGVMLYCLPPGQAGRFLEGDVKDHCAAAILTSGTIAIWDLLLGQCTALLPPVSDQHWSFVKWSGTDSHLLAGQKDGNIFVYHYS
UniProt Q14145: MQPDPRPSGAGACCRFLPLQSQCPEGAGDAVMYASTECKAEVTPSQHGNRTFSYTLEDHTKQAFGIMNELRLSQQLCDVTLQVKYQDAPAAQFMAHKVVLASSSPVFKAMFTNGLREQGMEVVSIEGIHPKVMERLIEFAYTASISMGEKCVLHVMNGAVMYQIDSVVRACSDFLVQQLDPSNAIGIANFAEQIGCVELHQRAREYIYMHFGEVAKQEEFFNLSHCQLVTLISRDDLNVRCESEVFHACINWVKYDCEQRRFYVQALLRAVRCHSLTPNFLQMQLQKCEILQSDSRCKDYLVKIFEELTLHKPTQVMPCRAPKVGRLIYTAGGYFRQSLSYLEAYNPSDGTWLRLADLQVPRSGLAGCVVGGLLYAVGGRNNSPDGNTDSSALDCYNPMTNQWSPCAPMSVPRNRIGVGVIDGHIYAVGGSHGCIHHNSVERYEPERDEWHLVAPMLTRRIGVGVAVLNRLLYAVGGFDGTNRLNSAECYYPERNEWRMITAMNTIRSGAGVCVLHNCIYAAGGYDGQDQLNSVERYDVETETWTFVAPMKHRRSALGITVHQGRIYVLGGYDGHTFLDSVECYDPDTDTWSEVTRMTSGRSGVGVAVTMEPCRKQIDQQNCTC
UniProt P02545, residues 1-646: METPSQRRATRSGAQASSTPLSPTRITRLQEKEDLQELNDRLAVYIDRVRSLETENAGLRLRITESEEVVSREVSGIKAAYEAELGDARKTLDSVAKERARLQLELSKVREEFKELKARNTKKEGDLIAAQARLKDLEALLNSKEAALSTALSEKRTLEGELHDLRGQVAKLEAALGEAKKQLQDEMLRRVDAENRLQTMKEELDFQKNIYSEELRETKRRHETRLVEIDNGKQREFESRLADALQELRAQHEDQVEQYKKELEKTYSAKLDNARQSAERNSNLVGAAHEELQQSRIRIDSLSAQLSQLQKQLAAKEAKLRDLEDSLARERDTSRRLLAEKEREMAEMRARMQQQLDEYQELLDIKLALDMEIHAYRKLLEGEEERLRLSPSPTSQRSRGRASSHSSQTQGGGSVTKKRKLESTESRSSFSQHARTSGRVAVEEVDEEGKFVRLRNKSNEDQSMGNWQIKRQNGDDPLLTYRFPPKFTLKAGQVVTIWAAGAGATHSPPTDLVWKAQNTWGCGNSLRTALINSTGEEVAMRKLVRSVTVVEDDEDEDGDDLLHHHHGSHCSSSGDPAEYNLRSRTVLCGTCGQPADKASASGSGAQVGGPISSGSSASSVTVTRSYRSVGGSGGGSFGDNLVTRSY
UniProt Q9UBU8: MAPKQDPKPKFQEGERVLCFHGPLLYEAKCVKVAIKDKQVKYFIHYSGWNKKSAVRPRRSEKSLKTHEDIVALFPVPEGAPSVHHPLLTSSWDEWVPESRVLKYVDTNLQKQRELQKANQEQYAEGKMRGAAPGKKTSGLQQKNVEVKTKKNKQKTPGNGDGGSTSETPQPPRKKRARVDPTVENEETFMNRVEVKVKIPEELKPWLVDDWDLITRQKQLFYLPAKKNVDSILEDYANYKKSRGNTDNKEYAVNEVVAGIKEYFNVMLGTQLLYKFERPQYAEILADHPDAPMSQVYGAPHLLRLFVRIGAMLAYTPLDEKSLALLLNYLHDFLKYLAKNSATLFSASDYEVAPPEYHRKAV
UniProt Q15014: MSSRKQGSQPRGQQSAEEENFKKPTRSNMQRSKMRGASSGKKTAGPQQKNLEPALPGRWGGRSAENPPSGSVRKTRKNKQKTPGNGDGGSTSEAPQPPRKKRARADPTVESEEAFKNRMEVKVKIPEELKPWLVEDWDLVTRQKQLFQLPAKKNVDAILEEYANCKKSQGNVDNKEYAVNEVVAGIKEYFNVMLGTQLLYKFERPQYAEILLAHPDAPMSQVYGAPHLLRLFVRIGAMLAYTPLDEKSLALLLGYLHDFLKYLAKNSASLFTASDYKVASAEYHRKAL

Target: FLAG-HA-double-tagged PALB2 (UniProt Q86YC2)
Experiment: affinity purification with mass spectrometry; tandem affinity purification (TAP) of FLAG-HA-PALB2 complex from stable HeLa S3 cells; whole purified material run ~1.5 cm into an SDS gel, trypsin digestion, LC-MS/MS; two independent experiments

- binding: binds
Molecule: KEAP1 (endogenous, HeLa S3) (from UniProt Q14145 1-624)

- binding: binds
Molecule: LMNA (endogenous, HeLa S3) (from UniProt P02545 1-646)

- binding: binds
Molecule: MRG15 (endogenous, HeLa S3) (from UniProt Q9UBU8 1-362)

- binding: binds
Molecule: MRGX (endogenous, HeLa S3) (from UniProt Q15014 1-288)

- binding: binds
B1: HNRNPM (endogenous, HeLa S3) (protein, UniProt P52272 1-730)
chain: MAAGVEAAAEVAATEIKMEEESGAPGVPSGNGAPGPKGEGERPAQNEKRKEKNIKRGGNRFEPYANPTKRYRAFITNIPFDVKWQSLKDLVKEKVGEVTYVELLMDAEGKSRGCAVVEFKMEESMKKAAEVLNKHSLSGRPLKVKEDPDGEHARRAMQKVMATTGGMGMGPGGPGMITIPPSILNNPNIPNEIIHALQAGRLGSTVFVANLDYKVGWKKLKEVFSMAGVVVRADILEDKDGKSRGIGTVTFEQSIEAVQAISMFNGQLLFDRPMHVKMDERALPKGDFFPPERPQQLPHGLGGIGMGLGPGGQPIDANHLNKGIGMGNIGPAGMGMEGIGFGINKMGGMEGPFGGGMENMGRFGSGMNMGRINEILSNALKRGEIIAKQGGGGGGGSVPGIERMGPGIDRLGGAGMERMGAGLGHGMDRVGSEIERMGLVMDRMGSVERMGSGIERMGPLGLDHMASSIERMGQTMERIGSGVERMGAGMGFGLERMAAPIDRVGQTIERMGSGVERMGPAIERMGLSMERMVPAGMGAGLERMGPVMDRMATGLERMGANNLERMGLERMGANSLERMGLERMGANSLERMGPAMGPALGAGIERMGLAMGGGGGASFDRAIEMERGNFGGSFAGSFGGAGGHAPGVARKACQIFVRNLPFDFTWKMLKDKFNECGHVLYADIKMENGKSKGCGVVKFESPEVAERACRMMNGMKLSGREIDVRIDRNA

These are yes or no findings as the source states them, for the method shown. Binding seen in cells or lysates may run through a third protein. These calls come from enrichment with a bait or labelling near it, and not all partners need be listed. Each block holds one molecule with its values, some of them ahead of it.
